The nature of data set [1]: post inversion viscosity of polyacrylamide fluid with biocide (Brookfield viscometer). To be noted: for polymer viscosity relative to control: 250 ppm biocide.
A short description of data set [2]: effect of biocide on oxygen scavenger (ORP). To be noted: 500 ppm biocide, after 10 minutes. It counts as physicochemical.

These results are taken from US9504252B2, “Microbiocides and uses thereof” (Buckman Laboratories International, Inc., priority 2014, dated 2016).

As to `O=CCCCC=O` [GA, glutaraldehyde, reference compound], in data set [1] (0.1% PAM, FIG. 1), the “polymer viscosity relative to control” value was “slightly lower”.
On to `CNC(=S)[S-].[Na+]` [SNMDTC, sodium-N-methyldithiocarbamate], for which, in data set [1] (0.1% PAM), the “viscosity lower than with GA” value is reported as “approximately 2.75%”. In addition, in data set [1] (0.1% PAM, FIG. 1), the “polymer viscosity relative to control” value was “slightly higher”. Besides, in data set [1] (higher biocide concentrations (up to 1,000 ppm), FIG. 1), the “polymer viscosity relative to control and GA sample” value is “slightly lower”. In addition, the “ORP lower than the control” value in data set [2] was “approximately 2 ×”.
